Results are given in words; binding and its absence hold for the method and conditions named. For some assays here: In cells and extracts the contact can be indirect. Some binding calls cover weakened binding; strength is not graded here.
Assays:
[1] = biological target: purified recombinant FLAG-tagged Solo (UniProt Q8TER5); assay: co-IP
[2] = biological target: GST-RhoA (G17A) (UniProt P61586); assay: pull-down

Chains of the proteins cited; added tags and fusions are not shown. Lines headed by an entry give the natural chain unless they say otherwise; changes in a name come on top. A line that says so, or that is headed by a name, gives the form on record, which may keep a tag or linker.
UniProt P61586: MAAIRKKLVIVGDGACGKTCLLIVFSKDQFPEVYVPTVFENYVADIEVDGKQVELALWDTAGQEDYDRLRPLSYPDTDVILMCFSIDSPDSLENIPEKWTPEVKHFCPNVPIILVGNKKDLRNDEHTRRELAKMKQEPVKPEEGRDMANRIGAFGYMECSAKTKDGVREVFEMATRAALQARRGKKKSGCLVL
UniProt O15085: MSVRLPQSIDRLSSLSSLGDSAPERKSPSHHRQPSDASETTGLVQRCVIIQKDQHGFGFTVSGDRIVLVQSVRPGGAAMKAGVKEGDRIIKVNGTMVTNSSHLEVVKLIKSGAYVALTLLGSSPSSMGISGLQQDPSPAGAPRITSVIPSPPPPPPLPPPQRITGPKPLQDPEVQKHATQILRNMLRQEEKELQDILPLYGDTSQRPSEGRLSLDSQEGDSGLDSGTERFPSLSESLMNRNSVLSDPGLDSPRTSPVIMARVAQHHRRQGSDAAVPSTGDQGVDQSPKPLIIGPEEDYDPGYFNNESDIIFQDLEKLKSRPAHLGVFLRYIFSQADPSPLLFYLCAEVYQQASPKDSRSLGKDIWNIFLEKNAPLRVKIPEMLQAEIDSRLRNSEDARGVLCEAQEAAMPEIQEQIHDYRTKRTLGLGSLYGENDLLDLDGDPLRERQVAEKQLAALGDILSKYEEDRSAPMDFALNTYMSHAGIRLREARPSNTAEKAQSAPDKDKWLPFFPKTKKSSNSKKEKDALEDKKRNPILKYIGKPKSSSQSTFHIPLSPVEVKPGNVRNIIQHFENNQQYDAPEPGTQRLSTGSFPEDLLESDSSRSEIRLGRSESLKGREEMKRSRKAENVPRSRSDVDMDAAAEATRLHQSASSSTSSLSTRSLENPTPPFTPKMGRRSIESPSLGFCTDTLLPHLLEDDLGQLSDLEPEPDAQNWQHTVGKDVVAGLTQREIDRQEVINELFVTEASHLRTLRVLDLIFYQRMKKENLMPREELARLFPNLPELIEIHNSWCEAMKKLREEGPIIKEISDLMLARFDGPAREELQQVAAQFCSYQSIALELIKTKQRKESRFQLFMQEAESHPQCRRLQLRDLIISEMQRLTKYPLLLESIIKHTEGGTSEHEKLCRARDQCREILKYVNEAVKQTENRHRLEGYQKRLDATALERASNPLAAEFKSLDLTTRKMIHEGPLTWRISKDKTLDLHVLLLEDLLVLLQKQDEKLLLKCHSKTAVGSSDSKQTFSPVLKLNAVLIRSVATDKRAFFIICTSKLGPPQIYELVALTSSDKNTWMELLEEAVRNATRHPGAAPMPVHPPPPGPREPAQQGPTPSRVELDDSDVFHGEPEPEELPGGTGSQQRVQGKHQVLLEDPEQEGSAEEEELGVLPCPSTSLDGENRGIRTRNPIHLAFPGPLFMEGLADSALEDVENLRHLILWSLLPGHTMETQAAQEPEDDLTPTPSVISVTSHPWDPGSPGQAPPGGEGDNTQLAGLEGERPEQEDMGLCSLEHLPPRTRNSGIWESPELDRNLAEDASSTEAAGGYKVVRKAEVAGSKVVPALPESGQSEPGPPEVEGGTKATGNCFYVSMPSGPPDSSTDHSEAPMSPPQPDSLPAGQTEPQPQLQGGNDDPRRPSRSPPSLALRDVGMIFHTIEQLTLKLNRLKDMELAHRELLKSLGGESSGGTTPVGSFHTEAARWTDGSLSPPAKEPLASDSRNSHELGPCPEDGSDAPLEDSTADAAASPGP
Endogenous LARG (MDCK cells) (A0A8I3NRY3, form named): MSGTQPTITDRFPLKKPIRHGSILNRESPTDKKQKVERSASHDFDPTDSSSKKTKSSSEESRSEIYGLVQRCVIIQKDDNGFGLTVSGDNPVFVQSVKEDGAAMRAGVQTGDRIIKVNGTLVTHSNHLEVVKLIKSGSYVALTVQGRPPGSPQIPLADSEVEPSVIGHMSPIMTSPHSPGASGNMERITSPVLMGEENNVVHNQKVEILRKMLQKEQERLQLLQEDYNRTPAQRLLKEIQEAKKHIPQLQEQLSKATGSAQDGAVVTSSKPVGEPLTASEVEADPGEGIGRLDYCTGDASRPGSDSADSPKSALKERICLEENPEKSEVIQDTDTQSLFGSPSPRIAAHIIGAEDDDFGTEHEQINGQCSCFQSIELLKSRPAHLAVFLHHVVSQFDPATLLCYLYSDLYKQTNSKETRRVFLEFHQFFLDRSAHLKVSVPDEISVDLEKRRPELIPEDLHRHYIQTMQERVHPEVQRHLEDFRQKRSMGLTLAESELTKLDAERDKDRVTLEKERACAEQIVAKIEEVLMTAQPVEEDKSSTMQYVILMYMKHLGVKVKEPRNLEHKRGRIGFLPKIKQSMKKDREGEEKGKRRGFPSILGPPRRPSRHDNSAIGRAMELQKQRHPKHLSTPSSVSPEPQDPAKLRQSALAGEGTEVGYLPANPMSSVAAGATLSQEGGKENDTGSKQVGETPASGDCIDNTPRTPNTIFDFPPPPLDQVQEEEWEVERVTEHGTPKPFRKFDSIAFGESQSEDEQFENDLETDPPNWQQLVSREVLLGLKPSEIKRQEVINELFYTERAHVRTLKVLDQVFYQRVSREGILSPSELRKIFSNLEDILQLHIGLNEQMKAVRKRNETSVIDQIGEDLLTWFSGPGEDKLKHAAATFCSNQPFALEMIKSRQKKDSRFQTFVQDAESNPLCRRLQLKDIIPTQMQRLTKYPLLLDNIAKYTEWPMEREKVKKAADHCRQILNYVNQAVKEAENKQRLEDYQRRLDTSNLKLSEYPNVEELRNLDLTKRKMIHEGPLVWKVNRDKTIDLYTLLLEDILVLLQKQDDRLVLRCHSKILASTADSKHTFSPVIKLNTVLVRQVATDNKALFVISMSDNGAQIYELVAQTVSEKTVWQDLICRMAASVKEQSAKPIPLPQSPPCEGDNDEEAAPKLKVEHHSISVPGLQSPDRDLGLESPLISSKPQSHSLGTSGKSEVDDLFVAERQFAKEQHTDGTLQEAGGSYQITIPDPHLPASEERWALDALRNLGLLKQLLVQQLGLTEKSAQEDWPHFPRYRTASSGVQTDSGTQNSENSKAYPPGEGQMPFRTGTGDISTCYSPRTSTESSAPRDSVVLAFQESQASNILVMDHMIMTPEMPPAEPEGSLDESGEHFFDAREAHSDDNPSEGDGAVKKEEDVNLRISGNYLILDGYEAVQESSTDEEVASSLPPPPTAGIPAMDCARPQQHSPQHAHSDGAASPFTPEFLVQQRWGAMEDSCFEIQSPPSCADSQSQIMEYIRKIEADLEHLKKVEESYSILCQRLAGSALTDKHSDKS

Row | binding [1] | binding [2] | Substance
1 | binds | – | purified recombinant FLAG-tagged PRG (from UniProt O15085 1-1522)
2 | – | binds | Endogenous LARG (MDCK cells) (from UniProt A0A8I3NRY3 1-1543)

From publication doi:10.1101/2025.04.08.647765
